We go through one sequence from paper PMC6609622.

Sequences of proteins named here, by UniProt entry; tags and fusion partners are left off.
UniProt P09874, whole entry: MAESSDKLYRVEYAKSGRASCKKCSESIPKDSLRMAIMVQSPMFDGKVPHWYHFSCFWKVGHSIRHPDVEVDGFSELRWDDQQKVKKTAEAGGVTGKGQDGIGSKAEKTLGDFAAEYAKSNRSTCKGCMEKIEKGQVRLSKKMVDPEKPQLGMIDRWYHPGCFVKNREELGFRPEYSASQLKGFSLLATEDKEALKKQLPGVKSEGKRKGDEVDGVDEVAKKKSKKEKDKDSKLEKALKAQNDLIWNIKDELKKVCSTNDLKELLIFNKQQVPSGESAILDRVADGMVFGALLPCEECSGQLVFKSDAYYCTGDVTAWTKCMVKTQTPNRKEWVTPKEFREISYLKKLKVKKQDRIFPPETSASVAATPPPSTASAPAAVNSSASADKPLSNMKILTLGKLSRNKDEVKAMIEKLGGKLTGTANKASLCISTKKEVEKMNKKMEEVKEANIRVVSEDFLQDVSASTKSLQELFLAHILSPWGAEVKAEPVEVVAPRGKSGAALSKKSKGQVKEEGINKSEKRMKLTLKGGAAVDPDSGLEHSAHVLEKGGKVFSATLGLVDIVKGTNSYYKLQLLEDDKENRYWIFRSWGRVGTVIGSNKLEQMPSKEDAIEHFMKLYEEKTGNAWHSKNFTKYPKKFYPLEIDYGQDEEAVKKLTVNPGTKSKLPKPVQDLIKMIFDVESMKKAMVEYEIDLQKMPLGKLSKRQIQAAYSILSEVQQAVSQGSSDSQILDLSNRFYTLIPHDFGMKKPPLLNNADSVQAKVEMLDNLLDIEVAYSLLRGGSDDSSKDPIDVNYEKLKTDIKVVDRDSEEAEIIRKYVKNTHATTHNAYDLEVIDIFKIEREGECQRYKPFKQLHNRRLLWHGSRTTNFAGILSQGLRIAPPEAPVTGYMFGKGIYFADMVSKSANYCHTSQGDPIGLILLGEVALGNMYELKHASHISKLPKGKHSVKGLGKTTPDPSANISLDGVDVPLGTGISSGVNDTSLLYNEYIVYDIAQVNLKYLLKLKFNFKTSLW

Construct, isoform or probe ends are uncertain for at least one entry. Negatives hold for the conditions tested. At least one verdict rests on a figure or table, not on a statement of the authors.

This series deals with PARP-1 (human) (UniProt P09874). Briefly: EMSA. Conditions: EMSA: 20 mM Na-HEPES pH 7.5, 0.1 mM DTT, 0.05% Triton X-100, 100 ug/mL BSA, 5 mM MgCl2, 2 mM ATP, 100 nM DNA, 37 C 10 min, then 0.2% glutaraldehyde 15 min, recombinant protein, label: 32P.

For “GGGCGAATTGGGCCCGACGTCGCATGCTCCTCTAGACTCGAGGAATTCGGTACCCCGGGTTCGAAATCGATAAGCTTACAGTCTCCATTTAAAGGACAAG (double strand) [JYM696/JYM698]”, the binding result is reported as “no binding” (250 uM NAD+, automodification releases PARP-1 from DNA) and “binds” (no NAD, 5 mM Mg2+, 2 mM ATP, glutaraldehyde-fixed).
